Here are results for 1 substance from article PMC9586327.

The chains behind the UniProt entries cited, without tags or fusion partners.
UniProt Q9NR12: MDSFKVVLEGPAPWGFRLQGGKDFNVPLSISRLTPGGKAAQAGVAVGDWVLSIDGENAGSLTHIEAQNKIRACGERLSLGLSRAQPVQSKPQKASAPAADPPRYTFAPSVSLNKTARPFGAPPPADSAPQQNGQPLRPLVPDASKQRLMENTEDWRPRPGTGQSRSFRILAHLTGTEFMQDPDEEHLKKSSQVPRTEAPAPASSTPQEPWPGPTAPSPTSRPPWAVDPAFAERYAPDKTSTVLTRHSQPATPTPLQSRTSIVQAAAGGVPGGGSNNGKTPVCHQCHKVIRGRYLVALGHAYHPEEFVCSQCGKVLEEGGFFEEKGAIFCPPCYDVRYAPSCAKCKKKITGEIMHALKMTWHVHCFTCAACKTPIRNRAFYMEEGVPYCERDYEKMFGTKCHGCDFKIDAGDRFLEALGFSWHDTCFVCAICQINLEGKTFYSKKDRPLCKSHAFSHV
UniProt Q6RHR9: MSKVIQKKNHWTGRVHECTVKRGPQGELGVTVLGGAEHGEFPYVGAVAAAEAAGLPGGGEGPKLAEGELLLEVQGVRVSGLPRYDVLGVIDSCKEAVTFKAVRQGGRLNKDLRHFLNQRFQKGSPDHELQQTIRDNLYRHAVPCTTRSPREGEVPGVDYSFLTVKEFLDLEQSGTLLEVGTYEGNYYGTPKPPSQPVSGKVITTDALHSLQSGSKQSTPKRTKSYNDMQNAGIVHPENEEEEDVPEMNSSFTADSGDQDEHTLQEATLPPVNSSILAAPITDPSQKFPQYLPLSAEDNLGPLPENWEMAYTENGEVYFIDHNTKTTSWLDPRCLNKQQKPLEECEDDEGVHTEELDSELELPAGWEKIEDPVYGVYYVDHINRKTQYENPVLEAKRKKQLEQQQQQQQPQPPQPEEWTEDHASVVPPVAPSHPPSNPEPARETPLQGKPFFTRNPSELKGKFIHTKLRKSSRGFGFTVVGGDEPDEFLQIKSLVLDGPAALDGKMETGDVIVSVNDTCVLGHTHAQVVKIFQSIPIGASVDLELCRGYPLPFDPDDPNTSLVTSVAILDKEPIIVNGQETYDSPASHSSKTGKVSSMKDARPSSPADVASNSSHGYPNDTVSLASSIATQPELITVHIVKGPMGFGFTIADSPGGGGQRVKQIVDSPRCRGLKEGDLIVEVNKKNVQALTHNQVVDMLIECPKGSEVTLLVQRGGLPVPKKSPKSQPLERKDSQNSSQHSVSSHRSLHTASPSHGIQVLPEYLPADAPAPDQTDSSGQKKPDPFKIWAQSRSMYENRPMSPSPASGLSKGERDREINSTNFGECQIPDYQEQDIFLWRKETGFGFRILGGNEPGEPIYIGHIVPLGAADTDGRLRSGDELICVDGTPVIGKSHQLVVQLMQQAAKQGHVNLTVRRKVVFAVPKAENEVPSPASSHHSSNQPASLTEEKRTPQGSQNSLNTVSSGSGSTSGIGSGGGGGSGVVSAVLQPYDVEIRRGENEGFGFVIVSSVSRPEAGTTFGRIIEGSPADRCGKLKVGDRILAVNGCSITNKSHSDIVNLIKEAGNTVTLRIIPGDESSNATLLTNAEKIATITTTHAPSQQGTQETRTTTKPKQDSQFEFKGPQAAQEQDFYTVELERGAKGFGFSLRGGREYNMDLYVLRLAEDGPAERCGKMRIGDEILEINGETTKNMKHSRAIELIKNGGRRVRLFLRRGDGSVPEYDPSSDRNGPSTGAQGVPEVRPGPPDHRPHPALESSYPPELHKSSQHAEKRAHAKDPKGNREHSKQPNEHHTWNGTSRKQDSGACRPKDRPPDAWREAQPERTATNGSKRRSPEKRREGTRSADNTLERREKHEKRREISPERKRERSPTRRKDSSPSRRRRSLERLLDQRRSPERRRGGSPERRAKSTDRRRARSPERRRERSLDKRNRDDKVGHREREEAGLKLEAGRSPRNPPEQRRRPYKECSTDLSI

The test concerns the target BioID2-Pdlim7 (human) (UniProt Q9NR12). Kind of test: relocalisation in cells (coexpression, fluorescence microscopy); COS-7 cells; localisation of the tagged prey expressed alone compared with coexpression with the bait; prey recruited to bait-positive internal structures.

These are yes or no findings as the source states them, for the method shown. Some results given as binding are weak or reduced against the parent protein; the word gives no strength.

EGFP-Magi1 (from UniProt Q6RHR9 1-1471): the binding result is given as “binds”.
